Assay results reported in article PMC5558016.
These are yes or no findings as the source states them, for the method shown. In cells and extracts the contact can be indirect. Some results given as binding are weak or reduced against the parent protein; the word gives no strength. Sequences can lack the tags named with a protein.

Experiments:
Experiment in all cases: co-IP; HEK293T cells co-transfected with GFP-STIL and Flag-tagged RTTN constructs; NP-40 lysis buffer (50 mM Tris-HCl pH 8.0, 150 mM NaCl, 1% NP-40); IP 2 h at 4 °C (anti-Flag in Fig. 7f), protein-G-sepharose, immunoblot
[1] = molecular target: T1, Flag-RTTN-N (the amino-terminal region, aa 1–889), wild type (human) (UniProt Q86VV8)
T1 sequence: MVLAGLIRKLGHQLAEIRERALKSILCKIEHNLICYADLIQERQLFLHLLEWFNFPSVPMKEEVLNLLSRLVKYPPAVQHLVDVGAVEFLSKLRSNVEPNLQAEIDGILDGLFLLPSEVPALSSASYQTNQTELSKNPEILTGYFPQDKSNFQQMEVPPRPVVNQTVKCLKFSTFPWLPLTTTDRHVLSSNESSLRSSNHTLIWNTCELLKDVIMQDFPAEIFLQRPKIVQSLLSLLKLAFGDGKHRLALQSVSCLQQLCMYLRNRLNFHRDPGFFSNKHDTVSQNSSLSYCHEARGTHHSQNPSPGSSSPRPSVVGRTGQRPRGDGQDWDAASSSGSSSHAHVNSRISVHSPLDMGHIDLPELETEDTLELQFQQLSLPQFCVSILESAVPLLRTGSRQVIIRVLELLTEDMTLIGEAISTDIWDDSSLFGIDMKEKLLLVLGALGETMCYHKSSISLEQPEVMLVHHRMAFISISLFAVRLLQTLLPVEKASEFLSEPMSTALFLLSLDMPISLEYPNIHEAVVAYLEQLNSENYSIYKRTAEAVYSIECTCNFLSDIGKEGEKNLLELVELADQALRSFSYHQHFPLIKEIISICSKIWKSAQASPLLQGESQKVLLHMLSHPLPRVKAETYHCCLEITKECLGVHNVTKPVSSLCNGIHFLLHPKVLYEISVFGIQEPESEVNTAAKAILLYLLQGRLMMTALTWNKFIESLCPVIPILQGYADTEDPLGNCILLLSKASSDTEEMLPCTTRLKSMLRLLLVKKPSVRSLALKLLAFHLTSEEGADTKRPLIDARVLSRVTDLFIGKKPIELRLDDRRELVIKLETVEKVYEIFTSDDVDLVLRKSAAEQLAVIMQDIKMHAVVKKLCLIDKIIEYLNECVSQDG

[2] = molecular target: T2, Flag-RTTN-M (the middle region, aa 748–1510) (human) (UniProt Q86VV8)
T2 sequence: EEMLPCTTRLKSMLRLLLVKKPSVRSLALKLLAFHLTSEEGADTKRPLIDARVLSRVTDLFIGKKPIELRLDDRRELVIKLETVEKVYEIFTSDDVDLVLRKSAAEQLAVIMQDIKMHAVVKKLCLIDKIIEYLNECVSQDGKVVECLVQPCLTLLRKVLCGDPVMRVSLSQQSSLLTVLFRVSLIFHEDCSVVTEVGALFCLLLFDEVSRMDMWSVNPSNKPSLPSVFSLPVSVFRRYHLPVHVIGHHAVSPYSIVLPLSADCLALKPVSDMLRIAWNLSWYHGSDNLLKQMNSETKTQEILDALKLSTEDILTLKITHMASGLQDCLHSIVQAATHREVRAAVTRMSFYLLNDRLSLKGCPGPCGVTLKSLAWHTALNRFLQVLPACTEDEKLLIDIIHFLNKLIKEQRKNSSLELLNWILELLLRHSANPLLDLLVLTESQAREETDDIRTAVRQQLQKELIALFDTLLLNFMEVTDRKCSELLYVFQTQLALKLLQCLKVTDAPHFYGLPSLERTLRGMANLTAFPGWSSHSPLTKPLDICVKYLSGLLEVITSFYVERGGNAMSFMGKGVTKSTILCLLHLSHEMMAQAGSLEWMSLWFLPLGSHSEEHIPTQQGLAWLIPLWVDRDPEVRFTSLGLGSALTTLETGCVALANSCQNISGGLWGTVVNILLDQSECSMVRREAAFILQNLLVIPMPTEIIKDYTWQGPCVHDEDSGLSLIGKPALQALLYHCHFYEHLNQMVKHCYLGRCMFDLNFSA

[3] = molecular target: T3, Flag-RTTN-C (the carboxy-terminal region, aa 1343–2226) (human) (UniProt Q86VV8)
T3 sequence: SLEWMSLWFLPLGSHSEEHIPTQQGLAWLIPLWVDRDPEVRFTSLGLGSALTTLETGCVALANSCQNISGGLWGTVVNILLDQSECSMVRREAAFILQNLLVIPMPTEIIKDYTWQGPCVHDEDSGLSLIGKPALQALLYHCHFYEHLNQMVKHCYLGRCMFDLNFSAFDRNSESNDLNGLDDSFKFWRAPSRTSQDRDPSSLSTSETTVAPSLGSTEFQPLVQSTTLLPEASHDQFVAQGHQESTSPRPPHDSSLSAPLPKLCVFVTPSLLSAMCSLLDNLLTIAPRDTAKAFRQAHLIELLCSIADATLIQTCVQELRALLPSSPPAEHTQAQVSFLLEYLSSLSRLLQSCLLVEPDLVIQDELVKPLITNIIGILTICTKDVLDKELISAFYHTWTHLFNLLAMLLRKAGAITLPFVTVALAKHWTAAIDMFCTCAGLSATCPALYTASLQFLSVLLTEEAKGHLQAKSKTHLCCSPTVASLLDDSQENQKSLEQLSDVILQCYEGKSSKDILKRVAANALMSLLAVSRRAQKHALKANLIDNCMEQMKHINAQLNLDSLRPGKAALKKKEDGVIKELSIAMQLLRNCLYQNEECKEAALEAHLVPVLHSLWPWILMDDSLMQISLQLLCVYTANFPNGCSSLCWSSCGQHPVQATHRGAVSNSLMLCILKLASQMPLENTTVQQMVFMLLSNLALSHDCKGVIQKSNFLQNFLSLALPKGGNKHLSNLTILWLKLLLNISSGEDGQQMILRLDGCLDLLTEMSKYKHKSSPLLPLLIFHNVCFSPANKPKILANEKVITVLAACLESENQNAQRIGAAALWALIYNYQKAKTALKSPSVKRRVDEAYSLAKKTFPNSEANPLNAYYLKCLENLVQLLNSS

B1: GFP-tagged full-length STIL (protein, UniProt Q15468-2 1-1288)
chain: MEPIYPFARPQMNTRFPSSRMVPFHFPPSKCALWNPTPTGDFIYLHLSYYRNPKLVVTEKTIRLAYRHAKQNKKNSSCFLLGSLTADEDEEGVTLTVDRFDPGREVPECLEITPTASLPGDFLIPCKVHTQELCSREMIVHSVDDFSSALKALQCHICSKDSLDCGKLLSLRVHITSRESLDSVEFDLHWAAVTLANNFKCTPVKPIPIIPTALARNLSSNLNISQVQGTYKYGYLTMDETRKLLLLLESDPKVYSLPLVGIWLSGITHIYSPQVWACCLRYIFNSSVQERVFSESGNFIIVLYSMTHKEPEFYECFPCDGKIPDFRFQLLTSKETLHLFKNVEPPDKNPIRCELSAESQNAETEFFSKASKNFSIKRSSQKLSSGKMPIHDHDSGVEDEDFSPRPIPSPHPVSQKISKIQPSVPELSLVLDGNFIESNPLPTPLEMVNNENPPLINHLEHLKPLQPQLYDEKHSPEVEAGEPSLRGIPNQLNQDKPALLRHCKVRQPPAYKKGNPHTRNSIKPSSHNGPSHDIFEKLQTVSAGNVQNEEYPIRPSTLNSRQSSLAPQSQPHDFVFSPHNSGRPMELQIPTPPLPSYCSTNVCRCCQHHSHIQYSPLNSWQGANTVGSIQDVQSEALQKHSLFHPSGCPALYCNAFCSSSSPIALRPQGDMGSCSPHSNIEPSPVARPPSHMDLCNPQPCTVCMHTPKTESDNGMMGLSPDAYRFLTEQDRQLRLLQAQIQRLLEAQSLMPCSPKTTAVEDTVQAGRQMELVSVEAQSSPGLHMRKGVSIAVSTGASLFWNAAGEDQEPDSQMKQDDTKISSEDMNFSVDINNEVTSLPGSASSLKAVDIPSFEESNIAVEEEFNQPLSVSNSSSLVVRKEPDVPVFFPSGQLAESVSMCLQTGPTGGASNNSETSEEPKIEHVMQPLLHQPSDNQKIYQDLLGQVNHLLNSSSKETEQPSTKAVIISHECTRTQNVYHTKKKTHHSRLVDKDCVLNATLKQLRSLGVKIDSPTKVKKNAHNVDHASVLACISPEAVISGLNCMSFANVGMSGLSPNGVDLSMEANAIALKYLNENQLSQLSVTRSNQNNCDPFSLLHINTDRSTVGLSLISPNNMSFATKKYMKRYGLLQSSDNSEDEEEPPDNADSKSEYLLNQNLRSIPEQLGGQKEPSKNDHEIINCSNCESVGTNADTPVLRNITNEVLQTKAKQQLTEKPAFLVKNLKPSPAVNLRTGKAEFTQHPEKENEGDITIFPESLQPSETLKQMNSMNSVGTFLDVKRLRQLPKLF
- binding [1]: binds
- binding [2]: no binding
- binding [3]: no binding
